# Results taken from ChEMBL document CHEMBL1142801, “Bradykinin B1 antagonists: SAR studies in the 2,3-diaminopyridine series” (Bioorg Med Chem Lett, 2005).
# Test: Partition coefficient (logP)
# Conditions: octanol/water
smiles,measurement,value
COC(=O)c1ccccc1N1CCC(O)(CNc2nccc(C)c2NC(=O)CC#N)CC1,logP,2.1
